# Experimental data: patent EP1516629B1
# Substitutions are numbered along the chain they refer to. Numbers in names are those of the source. These are yes or no findings as the source states them, for the method shown. Sequences can lack the tags named with a protein.
# T1: rhesus CD11a (rhesus) (UniProt H9Z8N3)
# T1 sequence: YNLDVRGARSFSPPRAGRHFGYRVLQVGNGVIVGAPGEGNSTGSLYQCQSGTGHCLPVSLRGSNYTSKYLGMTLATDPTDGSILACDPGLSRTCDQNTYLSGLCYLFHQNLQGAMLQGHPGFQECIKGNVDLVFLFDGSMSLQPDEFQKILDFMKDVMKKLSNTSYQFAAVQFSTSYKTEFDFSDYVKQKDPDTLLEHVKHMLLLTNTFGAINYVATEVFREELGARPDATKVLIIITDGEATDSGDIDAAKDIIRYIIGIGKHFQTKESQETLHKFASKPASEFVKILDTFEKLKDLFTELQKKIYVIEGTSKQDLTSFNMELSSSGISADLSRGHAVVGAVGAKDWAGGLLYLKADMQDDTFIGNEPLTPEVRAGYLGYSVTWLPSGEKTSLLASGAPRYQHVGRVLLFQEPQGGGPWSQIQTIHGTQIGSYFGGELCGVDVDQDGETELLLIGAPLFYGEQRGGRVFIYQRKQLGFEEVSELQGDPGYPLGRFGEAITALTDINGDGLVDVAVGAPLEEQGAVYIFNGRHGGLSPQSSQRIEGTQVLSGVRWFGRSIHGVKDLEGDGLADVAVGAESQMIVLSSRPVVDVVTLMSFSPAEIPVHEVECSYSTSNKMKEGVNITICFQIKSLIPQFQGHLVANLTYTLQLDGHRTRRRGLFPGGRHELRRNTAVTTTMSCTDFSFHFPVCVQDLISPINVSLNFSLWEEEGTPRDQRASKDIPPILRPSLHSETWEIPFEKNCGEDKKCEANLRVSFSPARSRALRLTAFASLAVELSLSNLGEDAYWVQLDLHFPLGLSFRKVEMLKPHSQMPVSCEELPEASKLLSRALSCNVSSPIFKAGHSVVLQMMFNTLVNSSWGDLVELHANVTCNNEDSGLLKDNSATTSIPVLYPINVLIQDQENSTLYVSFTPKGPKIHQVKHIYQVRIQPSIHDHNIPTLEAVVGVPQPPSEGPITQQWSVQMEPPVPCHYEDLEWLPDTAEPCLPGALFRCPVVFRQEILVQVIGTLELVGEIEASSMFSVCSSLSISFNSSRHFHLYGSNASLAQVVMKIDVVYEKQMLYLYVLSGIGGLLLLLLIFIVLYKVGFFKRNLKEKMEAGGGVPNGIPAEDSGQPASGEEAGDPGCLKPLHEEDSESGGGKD
# B1: H2B variant IgG1 (antibody, V domains shown)
# VH: EVQLVESGGGLVQPGGSLRLSCAASGYSFTGHWMNWVRQAPGKGLEWVGMIHPSASATAYNQKFKDRFTISVDKSKNTLYLQMNSLRAEDTAVYYCARGIYFYGTTYFDYWGQGTLVTVSS
# VL: DIQMTQSPSSLSASVGDRVTITCRASKTISKYLAWYQQKPGKAPKLLIYSGSTLQSGVPSRFSGSGSGTDFTLTISSLQPEDFATYYCQQHNEYPLTFGQGTKVEIK
# B2: HisH52Ser variant IgG1 (antibody, V domains shown)
# VH: B1 VH with H52S, A55D, A57E, A59R
# VL: B1 VL
# B3: SerH55Asn variant IgG1 (antibody, V domains shown)
# VH: B1 VH with A55D, S56N, A57E, A59R
# VL: B1 VL
# B4: LysH73Ala variant IgG1 (antibody, V domains shown)
# VH: B1 VH with A55D, A57E, A59R, K74A
# VL: B1 VL
# B5: H3B variant IgG1 (antibody, V domains shown)
# VH: B1 VH with A55D, A57E, A59R, T105A, T106A, Y107A
# VL: B1 VL
# B6: TyrH97Ala variant IgG1 (antibody, V domains shown)
# VH: B1 VH with A55D, A57E, A59R, Y101A
# VL: B1 VL
# B7: TyrH99Ala variant IgG1 (antibody, V domains shown)
# VH: B1 VH with A55D, A57E, A59R, Y103A
# VL: B1 VL
# B8: ThrH100aAla variant IgG1 (antibody, V domains shown)
# VH: B1 VH with A55D, A57E, A59R, T105A
# VL: B1 VL
# B9: ThrH100bAla variant IgG1 (antibody, V domains shown)
# VH: B1 VH with A55D, A57E, A59R, T106A
# VL: B1 VL
# B10: TyrH100cAla variant IgG1 (antibody, V domains shown)
# VH: B1 VH with A55D, A57E, A59R, Y107A
# VL: B1 VL
# B11: L2 variant IgG1 (antibody, V domains shown)
# VH: B1 VH with A55D, A57E, A59R
# VL: DIQMTQSPSSLSASVGDRVTITCRASKTISKYLAWYQQKPGKAPKLLIYAGAALQSGVPSRFSGSGSGTDFTLTISSLQPEDFATYYCQQHNEYPLTFGQGTKVEIKR
# B12: L3 variant IgG1 (antibody, V domains shown)
# VH: B1 VH with A55D, A57E, A59R
# VL: B11 VL with A50S, A52S, A53T, N92A, E93A, Y94A
# B13: HisL91Ala variant IgG1 (antibody, V domains shown)
# VH: B1 VH with A55D, A57E, A59R
# VL: B11 VL with A50S, A52S, A53T, H91A
# B14: TyrL94Ala variant IgG1 (antibody, V domains shown)
# VH: B1 VH with A55D, A57E, A59R
# VL: B11 VL with A50S, A52S, A53T, Y94A
# Molecular target: T1, rhesus CD11a (rhesus)
# Test: binding to rhesus peripheral blood lymphocytes
row,Binder,binding
1,B1,no binding (tested: greater than 10-fold weaker than HuIgG1)
2,B2,no binding (tested: greater than 10-fold weaker than HuIgG1)
3,B3,no binding (tested: greater than 10-fold weaker than HuIgG1)
4,B4,no binding (tested: greater than 10-fold weaker than HuIgG1)
5,B5,no binding (tested: greater than 10-fold weaker than HuIgG1)
6,B6,no binding (tested: greater than 10-fold weaker than HuIgG1)
7,B7,no binding (tested: greater than 10-fold weaker than HuIgG1)
8,B8,no binding (tested: greater than 10-fold weaker than HuIgG1)
9,B9,no binding (tested: greater than 10-fold weaker than HuIgG1)
10,B10,no binding (tested: greater than 10-fold weaker than HuIgG1)
11,B11,no binding (tested: greater than 10-fold weaker than HuIgG1)
12,B12,no binding (tested: greater than 10-fold weaker than HuIgG1)
13,B13,no binding (tested: greater than 10-fold weaker than HuIgG1)
14,B14,no binding (tested: greater than 10-fold weaker than HuIgG1)
